Experimental data reported in the supplement of paper PMC12819154, “High-throughput peptide-centric local stability assay extends protein–ligand identification to membrane proteins, tissues and bacteria” (Nature Structural & Molecular Biology, 2025).
This is one part of the list. Small differences around the control level are noise.

The chains behind the UniProt entries cited, without tags or fusion partners. Where a name states a change or a piece, a line headed by the entry shows the natural chain unless it says otherwise.
UniProt Q3TNA1: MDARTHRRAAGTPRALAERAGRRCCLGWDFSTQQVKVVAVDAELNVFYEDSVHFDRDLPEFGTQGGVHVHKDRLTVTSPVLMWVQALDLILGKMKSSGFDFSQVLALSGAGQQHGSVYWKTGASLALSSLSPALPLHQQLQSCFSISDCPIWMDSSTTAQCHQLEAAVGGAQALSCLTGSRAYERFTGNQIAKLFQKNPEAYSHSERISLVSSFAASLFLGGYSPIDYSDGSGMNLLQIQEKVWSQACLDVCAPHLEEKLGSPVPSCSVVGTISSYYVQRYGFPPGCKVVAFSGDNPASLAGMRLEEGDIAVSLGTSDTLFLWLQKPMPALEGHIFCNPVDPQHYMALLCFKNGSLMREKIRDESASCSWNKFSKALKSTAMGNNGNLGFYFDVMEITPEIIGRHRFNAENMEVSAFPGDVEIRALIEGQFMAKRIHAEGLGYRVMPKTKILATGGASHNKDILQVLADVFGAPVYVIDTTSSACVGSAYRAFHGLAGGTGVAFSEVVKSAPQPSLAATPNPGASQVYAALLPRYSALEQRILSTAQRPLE
UniProt Q3V1L4: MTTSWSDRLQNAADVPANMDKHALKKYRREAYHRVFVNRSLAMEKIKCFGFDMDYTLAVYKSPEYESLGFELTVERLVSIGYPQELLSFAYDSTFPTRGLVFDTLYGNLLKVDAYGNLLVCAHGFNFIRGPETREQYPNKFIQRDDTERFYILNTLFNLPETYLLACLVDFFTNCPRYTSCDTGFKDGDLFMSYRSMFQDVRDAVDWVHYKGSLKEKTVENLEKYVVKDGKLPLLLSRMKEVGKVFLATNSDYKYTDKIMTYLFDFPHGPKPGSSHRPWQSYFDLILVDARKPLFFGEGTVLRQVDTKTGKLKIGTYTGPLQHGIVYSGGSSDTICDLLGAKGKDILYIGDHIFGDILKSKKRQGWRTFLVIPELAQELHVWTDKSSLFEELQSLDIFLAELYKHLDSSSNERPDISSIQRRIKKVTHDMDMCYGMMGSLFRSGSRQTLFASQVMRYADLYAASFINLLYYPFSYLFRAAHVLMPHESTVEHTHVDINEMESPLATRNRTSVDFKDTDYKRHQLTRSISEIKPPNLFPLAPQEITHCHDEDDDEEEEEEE
UniProt Q52KI8: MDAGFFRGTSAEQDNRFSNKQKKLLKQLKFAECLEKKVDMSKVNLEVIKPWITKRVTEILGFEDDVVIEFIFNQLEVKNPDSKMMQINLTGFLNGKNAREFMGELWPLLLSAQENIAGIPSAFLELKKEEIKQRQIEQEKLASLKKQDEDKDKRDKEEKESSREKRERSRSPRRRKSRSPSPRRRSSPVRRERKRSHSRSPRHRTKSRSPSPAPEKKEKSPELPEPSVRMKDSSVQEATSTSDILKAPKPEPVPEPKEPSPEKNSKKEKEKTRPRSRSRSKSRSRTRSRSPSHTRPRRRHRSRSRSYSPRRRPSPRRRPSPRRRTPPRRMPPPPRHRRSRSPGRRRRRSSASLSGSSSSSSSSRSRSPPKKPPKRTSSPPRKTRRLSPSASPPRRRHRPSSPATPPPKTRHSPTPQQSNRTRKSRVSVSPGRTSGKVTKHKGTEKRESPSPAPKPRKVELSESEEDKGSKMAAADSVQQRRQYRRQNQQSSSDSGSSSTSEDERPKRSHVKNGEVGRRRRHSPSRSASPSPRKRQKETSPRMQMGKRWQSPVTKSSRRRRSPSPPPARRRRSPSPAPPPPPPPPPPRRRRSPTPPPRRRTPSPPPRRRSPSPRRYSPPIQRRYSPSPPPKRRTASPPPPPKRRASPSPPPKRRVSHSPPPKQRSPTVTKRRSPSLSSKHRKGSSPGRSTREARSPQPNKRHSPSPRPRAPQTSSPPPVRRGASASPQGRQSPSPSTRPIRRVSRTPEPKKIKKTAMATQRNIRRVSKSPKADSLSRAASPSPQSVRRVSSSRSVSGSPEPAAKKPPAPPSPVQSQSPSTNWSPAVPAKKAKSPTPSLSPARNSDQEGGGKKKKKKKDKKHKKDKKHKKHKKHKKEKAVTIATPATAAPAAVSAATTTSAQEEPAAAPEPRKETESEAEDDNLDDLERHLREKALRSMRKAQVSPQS
UniProt Q3UL97: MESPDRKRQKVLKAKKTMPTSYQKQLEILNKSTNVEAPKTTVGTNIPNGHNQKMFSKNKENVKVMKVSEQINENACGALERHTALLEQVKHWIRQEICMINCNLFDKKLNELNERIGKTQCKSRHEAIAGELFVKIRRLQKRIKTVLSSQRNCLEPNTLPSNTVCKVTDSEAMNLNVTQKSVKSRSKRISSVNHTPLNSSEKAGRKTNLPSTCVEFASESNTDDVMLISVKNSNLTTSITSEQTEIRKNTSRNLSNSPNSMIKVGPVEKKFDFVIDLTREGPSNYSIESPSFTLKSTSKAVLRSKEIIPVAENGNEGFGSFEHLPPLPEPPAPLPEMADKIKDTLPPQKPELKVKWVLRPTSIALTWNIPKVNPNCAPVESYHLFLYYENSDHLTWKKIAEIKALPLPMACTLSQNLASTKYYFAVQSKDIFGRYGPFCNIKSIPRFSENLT
UniProt Q3UV17: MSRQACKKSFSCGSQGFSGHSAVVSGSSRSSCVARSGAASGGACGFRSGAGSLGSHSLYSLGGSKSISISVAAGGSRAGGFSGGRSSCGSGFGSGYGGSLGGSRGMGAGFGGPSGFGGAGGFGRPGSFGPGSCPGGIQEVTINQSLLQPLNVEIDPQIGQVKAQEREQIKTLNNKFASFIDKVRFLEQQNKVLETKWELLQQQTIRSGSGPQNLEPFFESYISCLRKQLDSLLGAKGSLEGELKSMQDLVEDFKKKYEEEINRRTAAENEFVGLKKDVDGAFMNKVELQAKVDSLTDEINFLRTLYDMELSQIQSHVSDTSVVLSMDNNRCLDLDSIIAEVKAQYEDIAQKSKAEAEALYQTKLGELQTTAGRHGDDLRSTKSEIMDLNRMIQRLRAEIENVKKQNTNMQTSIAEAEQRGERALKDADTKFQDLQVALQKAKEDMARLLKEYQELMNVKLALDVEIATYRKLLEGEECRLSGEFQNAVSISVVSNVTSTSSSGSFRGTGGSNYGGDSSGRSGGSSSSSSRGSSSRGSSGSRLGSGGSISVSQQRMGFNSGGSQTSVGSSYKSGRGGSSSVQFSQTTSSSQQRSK
UniProt Q3U0V1: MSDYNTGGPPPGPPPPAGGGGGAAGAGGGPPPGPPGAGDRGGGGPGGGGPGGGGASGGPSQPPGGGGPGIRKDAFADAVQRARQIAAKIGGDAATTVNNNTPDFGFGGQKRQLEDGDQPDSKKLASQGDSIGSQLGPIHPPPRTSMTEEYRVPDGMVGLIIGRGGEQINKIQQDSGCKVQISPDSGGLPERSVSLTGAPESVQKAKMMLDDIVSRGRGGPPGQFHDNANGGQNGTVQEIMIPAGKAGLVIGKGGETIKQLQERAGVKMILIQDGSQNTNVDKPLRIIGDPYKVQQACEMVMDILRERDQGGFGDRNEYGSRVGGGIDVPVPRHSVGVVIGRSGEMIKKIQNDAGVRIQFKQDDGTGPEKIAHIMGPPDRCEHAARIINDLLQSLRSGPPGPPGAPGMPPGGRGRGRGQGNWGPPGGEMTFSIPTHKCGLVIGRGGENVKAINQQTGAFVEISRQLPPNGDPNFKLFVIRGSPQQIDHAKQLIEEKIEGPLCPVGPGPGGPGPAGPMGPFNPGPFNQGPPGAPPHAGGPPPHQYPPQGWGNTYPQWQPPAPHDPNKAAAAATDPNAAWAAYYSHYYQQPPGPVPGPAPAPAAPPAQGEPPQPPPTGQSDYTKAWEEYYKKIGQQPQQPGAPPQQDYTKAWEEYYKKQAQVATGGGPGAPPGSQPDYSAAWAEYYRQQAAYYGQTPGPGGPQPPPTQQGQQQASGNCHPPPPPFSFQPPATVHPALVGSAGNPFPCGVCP
UniProt Q3UHX2: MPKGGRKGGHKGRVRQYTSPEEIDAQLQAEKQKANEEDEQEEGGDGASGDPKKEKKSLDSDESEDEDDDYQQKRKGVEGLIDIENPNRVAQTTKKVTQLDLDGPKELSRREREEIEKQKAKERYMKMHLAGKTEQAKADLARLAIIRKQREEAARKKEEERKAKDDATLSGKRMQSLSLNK
UniProt Q3U2C5: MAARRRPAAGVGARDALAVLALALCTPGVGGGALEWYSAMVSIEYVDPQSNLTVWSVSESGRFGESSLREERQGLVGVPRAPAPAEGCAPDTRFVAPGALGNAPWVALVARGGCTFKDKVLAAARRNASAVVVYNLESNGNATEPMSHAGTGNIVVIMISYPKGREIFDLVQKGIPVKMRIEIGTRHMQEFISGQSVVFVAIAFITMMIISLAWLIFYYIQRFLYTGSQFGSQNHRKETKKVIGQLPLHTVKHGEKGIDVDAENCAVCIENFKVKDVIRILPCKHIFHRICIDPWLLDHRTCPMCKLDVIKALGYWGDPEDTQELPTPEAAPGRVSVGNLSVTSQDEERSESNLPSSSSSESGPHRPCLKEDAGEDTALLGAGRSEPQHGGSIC
UniProt Q5M8N0: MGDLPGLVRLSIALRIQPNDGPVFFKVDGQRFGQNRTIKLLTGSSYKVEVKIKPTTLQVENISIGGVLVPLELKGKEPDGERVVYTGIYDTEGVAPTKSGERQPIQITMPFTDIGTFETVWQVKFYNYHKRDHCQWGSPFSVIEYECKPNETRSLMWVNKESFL
UniProt Q3ULD5: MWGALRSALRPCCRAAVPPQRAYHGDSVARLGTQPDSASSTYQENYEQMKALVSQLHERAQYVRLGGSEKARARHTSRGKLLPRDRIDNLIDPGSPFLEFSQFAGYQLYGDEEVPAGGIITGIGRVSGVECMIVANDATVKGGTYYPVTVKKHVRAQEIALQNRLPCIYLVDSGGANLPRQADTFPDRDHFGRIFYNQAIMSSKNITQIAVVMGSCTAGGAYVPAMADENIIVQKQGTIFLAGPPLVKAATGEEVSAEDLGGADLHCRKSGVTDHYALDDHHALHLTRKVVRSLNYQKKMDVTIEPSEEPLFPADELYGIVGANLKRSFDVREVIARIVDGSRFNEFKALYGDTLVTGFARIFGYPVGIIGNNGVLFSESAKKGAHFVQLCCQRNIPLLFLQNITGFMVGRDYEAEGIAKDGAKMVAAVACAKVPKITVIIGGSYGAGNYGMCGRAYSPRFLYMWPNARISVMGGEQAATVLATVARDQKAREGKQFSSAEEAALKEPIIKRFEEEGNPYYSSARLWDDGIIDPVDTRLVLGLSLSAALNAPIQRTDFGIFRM
UniProt Q3UI43, whole entry: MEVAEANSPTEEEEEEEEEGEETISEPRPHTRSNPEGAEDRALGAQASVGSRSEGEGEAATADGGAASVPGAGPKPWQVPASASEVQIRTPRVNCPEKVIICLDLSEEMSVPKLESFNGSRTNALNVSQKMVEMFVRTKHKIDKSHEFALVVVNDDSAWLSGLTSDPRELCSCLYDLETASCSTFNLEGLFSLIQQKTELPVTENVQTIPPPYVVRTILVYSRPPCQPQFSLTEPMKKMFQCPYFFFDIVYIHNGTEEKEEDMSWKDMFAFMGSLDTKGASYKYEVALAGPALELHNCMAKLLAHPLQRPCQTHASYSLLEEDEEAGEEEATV
UniProt Q3UP75: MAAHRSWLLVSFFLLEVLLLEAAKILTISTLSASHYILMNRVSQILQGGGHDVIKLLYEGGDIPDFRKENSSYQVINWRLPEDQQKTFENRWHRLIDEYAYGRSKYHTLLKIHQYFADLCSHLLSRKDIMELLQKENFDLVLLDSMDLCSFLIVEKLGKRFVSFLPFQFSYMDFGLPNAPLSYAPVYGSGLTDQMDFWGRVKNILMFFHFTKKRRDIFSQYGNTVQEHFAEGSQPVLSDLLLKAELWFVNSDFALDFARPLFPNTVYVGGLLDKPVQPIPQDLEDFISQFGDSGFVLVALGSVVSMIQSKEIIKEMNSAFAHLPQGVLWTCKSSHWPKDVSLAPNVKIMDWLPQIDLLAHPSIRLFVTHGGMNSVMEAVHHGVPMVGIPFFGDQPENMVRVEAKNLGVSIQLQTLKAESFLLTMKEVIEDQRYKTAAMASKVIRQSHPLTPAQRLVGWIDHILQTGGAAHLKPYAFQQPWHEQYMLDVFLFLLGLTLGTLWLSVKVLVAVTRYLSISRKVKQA
UniProt Q4QQM4: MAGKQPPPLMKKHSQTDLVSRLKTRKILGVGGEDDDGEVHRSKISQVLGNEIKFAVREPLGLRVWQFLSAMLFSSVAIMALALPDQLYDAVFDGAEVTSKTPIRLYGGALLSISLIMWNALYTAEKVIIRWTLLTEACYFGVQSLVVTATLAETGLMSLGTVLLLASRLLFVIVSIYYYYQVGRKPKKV
UniProt P99025: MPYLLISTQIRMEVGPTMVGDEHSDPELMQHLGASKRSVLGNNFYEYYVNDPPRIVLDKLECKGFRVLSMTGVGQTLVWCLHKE
UniProt Q07813, whole entry: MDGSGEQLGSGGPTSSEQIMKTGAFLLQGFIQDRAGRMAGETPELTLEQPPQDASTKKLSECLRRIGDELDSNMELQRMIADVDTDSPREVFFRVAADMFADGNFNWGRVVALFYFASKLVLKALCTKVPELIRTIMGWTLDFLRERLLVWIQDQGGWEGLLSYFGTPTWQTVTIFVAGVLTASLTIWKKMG

Compound: CN[C@@H]1C[C@H]2O[C@@](C)([C@@H]1OC)n1c3ccccc3c3c4c(c5c6ccccc6n2c5c31)C(=O)NC4 [staurosporine]
Assay: log2 fold change of pooled soluble protein (PISA), ligand vs vehicle (log2 ratio); higher = more thermally stabilized
Settings: ligand concentration: 20 uM; assay format: PISA pool 52.9/55.5/58.6 C

Target | log2 fold change of pooled soluble protein
UniProt Q3TNA1 | 0.0212
UniProt Q5FWK3 | 0.0218
UniProt Q02257 | -0.0293
UniProt Q3V1L4 | -0.00306
UniProt Q5BLK4 | -0.065
UniProt Q3TCX3 | -0.0409
UniProt Q3U0B3 | -0.04
UniProt Q52KI8 | -0.00835
UniProt Q3UL97 | -0.18
UniProt Q3UV17 | -0.415
UniProt Q3U0V1 | -0.0269
UniProt Q5IRJ6 | 0.165
UniProt Q3UHX0 | 0.0884
UniProt Q3UHX2 | -0.0763
UniProt Q3U2C5 | -0.059
UniProt Q05793 | -0.0826
UniProt Q5M8N0 | 0.00666
UniProt Q07417 | -0.0713
UniProt Q569Z6 | -0.0807

As a short view, part of the list above:
Target | log2 fold change of pooled soluble protein
UniProt Q3TNA1 | 0.0212
UniProt Q5FWK3 | 0.0218
UniProt Q02257 | -0.0293

Next results follow.

Target | log2 fold change of pooled soluble protein
UniProt Q3ULD5 | -0.14
UniProt Q3TZZ7 | 0.3
UniProt Q3UI43 | 0.0381
UniProt Q3UJD6 | -0.133
Q3T9E4;Q62293 | -0.124
UniProt Q3UBZ5 | 0.0501
UniProt Q02614 | 0.37
UniProt Q3UP75 | 0.158
UniProt Q3TL44 | -0.0568
UniProt Q01705 | 0.0834
UniProt Q4ACU6 | -0.137
UniProt Q4QQM4 | -0.189
UniProt Q505D7 | 0.0293
UniProt P99025 | 0.045
UniProt Q5RJF7 | 0.0542
UniProt Q07813 | -0.181
UniProt Q570Y9 | -0.175
UniProt Q3TIR1 | -0.085
